# Test results from the supplement of paper PMC8728848.
# The other results are listed elsewhere or left out.
# B1: Blon2355mut (Bifidobacterium longum) (protein)
# chain: MVQEPTLEWHVIPEPTNVEPLVGTCSLPLSGTVVEQRGADDAEAVFARQLVDDIKRVCGGRWQVASGEVQREVTLRTSPSLDDWSYVLEVSPDGVVITGSGFEGVRDGVQTLRQIIRQIGLTIPCMVIRDRPAFSTRGYYLDVTRGRVPSMAWLKSWVDRLCFYKYNQFQLYIEHTFQFNGLSEVWRGADPLTSSDILELDSYCAARGIELVPSVSTFGHHYTALRTRQLRDLGEFPEDADRPFSLIERMTHHTLNITDERSYEFSTSLIDELMPLFRSRKFNICANETFDLGKGRSKQESAKRGVGAMYADFVERLCRHVDDRGHDVMVWADVALEHPEIIDTLPKNITWLNWQYEPNVDDGTTAALADAGATQMVCPAVWCWNALIPRIDDAWNNITRMARHGRAHDVSGMLVTDWGDFGHVNDPRMSVPGMIFGAQQSWNPDAELSEVDMLSRISTIEYGDHTGSVVGALRGASAKGGFSWSDLVTYLELDDGRGGCNTEIVRVMGCLEAYRNDLPQSGQARLADARVSMLRTLRDSILAGRELNGKLDDAAKDITQLLRVAGDPSSAAVWSLAIDGQRLLNRVGLALLAAHGVVRQDEAGIDAAKLADELECWTEQYSRLWHEVSRQSELARIQHVVWRAADVLRSI
# Assays:
# Experiment in all cases: glycan array binding signal (z-score within array); higher = stronger binding
# Settings in all cases: glycan notation: IUPAC condensed, linker removed
# [1] = biological target: GlcNAc(b1-3)Gal(b1-4)GlcNAc(b1-3)GalNAc
# In short: (§1)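 The Consortium for Functional Glycomics database supplied 3228 glycan arrays, of which those lacking an available protein sequence were dropped. The binding signal, a within-array Z-score, was averaged across arrays of the same protein sequence and across linkers. Negative scores can be read as non-binding.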
# [2] = biological target: GlcNAc(b1-3)Gal(b1-4)GlcNAc(b1-3)[GlcNAc(b1-3)Gal(b1-4)GlcNAc(b1-3)]GalNAc
# In short: as §1
# [3] = biological target: GlcNAc(b1-3)Gal(b1-4)GlcNAc(b1-6)[Gal(b1-3)]GalNAc
# In short: as §1
# [4] = biological target: GlcNAc(b1-3)Gal(b1-4)GlcNAc(b1-6)[GlcNAc(b1-3)Gal(b1-3)]GalNAc
# In short: as §1
# [5] = biological target: GlcNAc(b1-3)Gal(b1-4)GlcNAc(b1-6)[GlcNAc(b1-3)]Gal(b1-4)GlcNAc
# In short: as §1
# [6] = biological target: GlcNAc(b1-3)GalNAc
# In short: as §1
# [7] = biological target: GlcNAc(b1-3)Man
# In short: as §1
# [8] = biological target: GlcNAc(b1-3)[GlcNAc(b1-4)][GlcNAc(b1-6)]GlcNAc
# In short: as §1
# [9] = biological target: GlcNAc(b1-3)[GlcNAc(b1-6)]Gal(b1-4)GlcNAc
# In short: as §1
# [10] = biological target: GlcNAc(b1-3)[GlcNAc(b1-6)]GalNAc
# In short: as §1
# [11] = biological target: GlcNAc(b1-4)Gal(b1-4)GlcNAc
# In short: as §1
# [12] = biological target: GlcNAc(b1-4)GlcNAc
# In short: as §1
# [13] = biological target: GlcNAc(b1-4)GlcNAc(b1-4)GlcNAc
# In short: as §1
# [14] = biological target: GlcNAc(b1-4)GlcNAc(b1-4)GlcNAc(b1-4)GlcNAc(b1-4)GlcNAc
# In short: as §1
# [15] = biological target: GlcNAc(b1-4)GlcNAc(b1-4)GlcNAc(b1-4)GlcNAc(b1-4)GlcNAc(b1-4)GlcNAc
# In short: as §1
# [16] = biological target: GlcNAc(b1-4)[GlcNAc(b1-6)]GalNAc
# In short: as §1
# [17] = biological target: GlcNAc(b1-6)Gal(b1-4)GlcNAc
# In short: as §1
# [18] = biological target: GlcNAc(b1-6)GalNAc
# In short: as §1
# [19] = biological target: GlcNAc6S(b1-3)Gal(b1-4)GlcNAc
# In short: as §1
# [20] = biological target: Kdn(a2-3)Gal(b1-3)GalNAc
# In short: as §1
# [21] = biological target: Kdn(a2-3)Gal(b1-3)GlcNAc
# In short: as §1
# [22] = biological target: Kdn(a2-3)Gal(b1-4)Glc
# In short: as §1
# [23] = biological target: Kdn(a2-3)Gal(b1-4)GlcNAc
# In short: as §1
# [24] = biological target: Kdn(a2-3)Gal(b1-4)[Fuc(a1-3)]GlcNAc
# In short: as §1
# [25] = biological target: Kdn(a2-6)Gal(b1-4)GlcNAc
# In short: as §1
# [26] = biological target: Man(a1-2)Man(a1-2)Man(a1-3)Man
# In short: as §1
# [27] = biological target: Man(a1-2)Man(a1-2)Man(a1-6)[Man(a1-3)]Man
# In short: as §1
# [28] = biological target: Man(a1-2)Man(a1-3)Man
# In short: as §1
# [29] = biological target: Man(a1-2)Man(a1-3)[Man(a1-2)Man(a1-6)]Man
# In short: as §1
# [30] = biological target: Man(a1-2)Man(a1-3)[Man(a1-2)Man(a1-6)]Man(a1-6)[Man(a1-2)Man(a1-2)Man(a1-3)]Man
# In short: as §1
binder,measurement,setting,value
B1,glycan array binding signal (z-score),[1],2.04
same,glycan array binding signal (z-score),[2],3.84
same,glycan array binding signal (z-score),[3],1.67
same,glycan array binding signal (z-score),[4],-0.208
same,glycan array binding signal (z-score),[5],-0.18
same,glycan array binding signal (z-score),[6],-0.629
same,glycan array binding signal (z-score),[7],-0.814
same,glycan array binding signal (z-score),[8],-0.175
same,glycan array binding signal (z-score),[9],-0.106
same,glycan array binding signal (z-score),[10],-0.847
same,glycan array binding signal (z-score),[11],-0.202
same,glycan array binding signal (z-score),[12],0.047
same,glycan array binding signal (z-score),[13],-0.51
same,glycan array binding signal (z-score),[14],-0.769
same,glycan array binding signal (z-score),[15],0.29
same,glycan array binding signal (z-score),[16],0.011
same,glycan array binding signal (z-score),[17],1.29
same,glycan array binding signal (z-score),[18],-0.103
same,glycan array binding signal (z-score),[19],-0.49
same,glycan array binding signal (z-score),[20],1.24
same,glycan array binding signal (z-score),[21],1.19
same,glycan array binding signal (z-score),[22],-0.358
same,glycan array binding signal (z-score),[23],-0.044
same,glycan array binding signal (z-score),[24],-0.483
same,glycan array binding signal (z-score),[25],1.48
same,glycan array binding signal (z-score),[26],-0.041
same,glycan array binding signal (z-score),[27],-0.483
same,glycan array binding signal (z-score),[28],-1.18
same,glycan array binding signal (z-score),[29],-0.379
same,glycan array binding signal (z-score),[30],-0.533

# Exported as tab-separated lines: part of the list above
binder	measurement	setting	value
B1	glycan array binding signal (z-score)	[6]	-0.629
same	glycan array binding signal (z-score)	[16]	0.011
